For at least one entry, the source does not settle the construct or the ends of the probe. For part of these data: At least one result comes from cells or an extract, where the contact may be indirect. Protein sequences can lack the tags named with them. For part of these data: At least one verdict was read from the data and is not stated in words by the source.
Legend:
[1] = biological target: T1, His-ΔN-ZNF395 del1-114 (UniProt Q9H8N7); assay: EMSA; settings: Native PAA gel shift, 200 pg 32P-labeled oligonucleotide, 250-fold excess competitor; recombinant protein; residues 115-513; protein details: His; label: 32P (gamma-ATP) or unlabeled as competitor
T1 sequence (looked up): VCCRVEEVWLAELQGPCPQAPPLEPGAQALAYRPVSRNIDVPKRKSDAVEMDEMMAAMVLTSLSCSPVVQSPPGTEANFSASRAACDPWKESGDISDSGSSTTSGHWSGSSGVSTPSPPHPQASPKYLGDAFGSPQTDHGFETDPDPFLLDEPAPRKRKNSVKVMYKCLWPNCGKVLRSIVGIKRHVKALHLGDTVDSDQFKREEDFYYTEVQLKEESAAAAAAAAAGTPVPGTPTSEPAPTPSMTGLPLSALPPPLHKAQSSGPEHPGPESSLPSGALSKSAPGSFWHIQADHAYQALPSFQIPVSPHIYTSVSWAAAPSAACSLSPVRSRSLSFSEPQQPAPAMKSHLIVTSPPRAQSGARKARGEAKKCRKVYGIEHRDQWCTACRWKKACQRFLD

[2] = biological target: T2, FLAG-ZNF395 (UniProt Q9H8N7); assay: competition with a labelled probe; settings: nuclear extract +Dox, labeled ISRE-wt, 250-fold excess unlabeled ISRE-mut, putative ZNF395 complex; protein in an extract; protein details: FLAG; label: 32P (gamma-ATP) or unlabeled as competitor
T2 sequence (looked up, limits assumed): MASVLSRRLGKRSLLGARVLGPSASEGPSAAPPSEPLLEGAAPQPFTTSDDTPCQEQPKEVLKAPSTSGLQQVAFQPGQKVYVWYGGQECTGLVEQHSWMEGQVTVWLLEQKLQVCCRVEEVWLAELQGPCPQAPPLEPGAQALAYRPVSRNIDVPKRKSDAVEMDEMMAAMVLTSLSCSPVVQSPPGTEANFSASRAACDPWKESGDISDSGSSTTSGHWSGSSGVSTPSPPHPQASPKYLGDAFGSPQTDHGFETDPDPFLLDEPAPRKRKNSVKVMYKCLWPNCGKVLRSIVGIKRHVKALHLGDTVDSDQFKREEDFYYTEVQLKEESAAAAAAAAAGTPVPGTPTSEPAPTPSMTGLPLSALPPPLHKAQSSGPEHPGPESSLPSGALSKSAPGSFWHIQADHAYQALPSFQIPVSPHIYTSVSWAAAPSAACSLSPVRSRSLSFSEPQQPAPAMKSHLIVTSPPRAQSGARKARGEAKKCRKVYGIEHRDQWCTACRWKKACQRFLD

[3] = biological target: T1, His-ΔN-ZNF395 del1-114; assay: competition with a labelled probe; settings: recombinant protein, residues 115-513, protein details: His, label: 32P (gamma-ATP) or unlabeled as competitor
[4] = biological target: T2, FLAG-ZNF395; assay: EMSA; settings: nuclear extract +Dox, putative ZNF395 complex (might represent ZNF395); Native PAA gel shift, 200 pg 32P-labeled oligonucleotide, 250-fold excess competitor; protein in an extract; protein details: FLAG; label: 32P (gamma-ATP) or unlabeled as competitor

Measured: binding result

TTTAGTGTCACTTTCCCCTGTCGGTTTCCCTAGGT (double strand) [ISRE-mut114/101]
binds: [1] | [2] | [3]; 250-fold excess unlabeled ISRE-mut

TTTAGTTTCACTTTCCCCTTTCGGTTTCCCTAGGT (double strand) [ISRE-wt (ISG56 ISRE I/II)]
binds: [4] | [1] | [3]; 250-fold excess unlabeled ISRE-wt, outcome not stated separately
